Measurements reported in publication PMC11451547.
Results are given in words; binding and its absence hold for the method and conditions named. In cells and extracts the contact can be indirect. Some entries that bind do so weakly or less than the wild type. Where a sequence is shown, tags or fusion partners need not be part of it.

Chains of the proteins cited; added tags and fusions are not shown.
UniProt Q9NQG6: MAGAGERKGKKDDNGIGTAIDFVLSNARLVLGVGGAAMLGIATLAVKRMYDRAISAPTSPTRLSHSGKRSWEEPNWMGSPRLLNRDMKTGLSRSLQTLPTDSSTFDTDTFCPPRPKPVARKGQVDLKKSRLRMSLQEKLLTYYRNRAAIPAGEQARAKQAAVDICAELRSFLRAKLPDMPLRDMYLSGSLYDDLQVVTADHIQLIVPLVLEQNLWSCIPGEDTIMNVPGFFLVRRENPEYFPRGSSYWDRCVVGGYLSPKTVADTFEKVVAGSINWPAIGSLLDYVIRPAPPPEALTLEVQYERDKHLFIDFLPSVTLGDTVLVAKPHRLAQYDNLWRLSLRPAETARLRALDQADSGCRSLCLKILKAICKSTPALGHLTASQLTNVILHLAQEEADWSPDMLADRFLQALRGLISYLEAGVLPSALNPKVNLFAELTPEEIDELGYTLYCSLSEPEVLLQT

T1: GFP-MFF K151R (pAcGFP-tagged human MFF isoform 1, K151R) (human) (UniProt Q9GZY8)
T1 sequence: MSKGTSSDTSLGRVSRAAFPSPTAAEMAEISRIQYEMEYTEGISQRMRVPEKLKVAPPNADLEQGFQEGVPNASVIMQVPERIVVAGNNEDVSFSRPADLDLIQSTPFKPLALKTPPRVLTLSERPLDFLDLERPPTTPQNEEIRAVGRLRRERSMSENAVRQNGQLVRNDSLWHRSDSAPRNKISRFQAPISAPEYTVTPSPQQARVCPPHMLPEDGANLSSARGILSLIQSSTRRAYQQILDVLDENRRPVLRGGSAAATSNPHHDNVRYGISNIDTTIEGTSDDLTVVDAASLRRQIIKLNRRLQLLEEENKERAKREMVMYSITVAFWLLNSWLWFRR

T2: GFP-MFF wild type (pAcGFP-tagged human MFF isoform 1) (human) (UniProt Q9GZY8)
T2 sequence: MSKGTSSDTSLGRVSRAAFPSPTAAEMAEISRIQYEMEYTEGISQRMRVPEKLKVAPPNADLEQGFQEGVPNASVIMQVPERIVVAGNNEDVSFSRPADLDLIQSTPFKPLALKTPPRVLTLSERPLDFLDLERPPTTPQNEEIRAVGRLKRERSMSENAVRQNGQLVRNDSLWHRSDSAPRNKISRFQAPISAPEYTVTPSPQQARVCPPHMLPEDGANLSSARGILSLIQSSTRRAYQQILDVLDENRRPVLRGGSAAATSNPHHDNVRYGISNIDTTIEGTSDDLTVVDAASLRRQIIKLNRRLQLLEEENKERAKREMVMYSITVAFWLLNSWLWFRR

T3: CFP-MFF-2SD (double phospho-mimetic S155D/S172D MFF, human isoform 1) (human) (UniProt Q9GZY8)
T3 sequence: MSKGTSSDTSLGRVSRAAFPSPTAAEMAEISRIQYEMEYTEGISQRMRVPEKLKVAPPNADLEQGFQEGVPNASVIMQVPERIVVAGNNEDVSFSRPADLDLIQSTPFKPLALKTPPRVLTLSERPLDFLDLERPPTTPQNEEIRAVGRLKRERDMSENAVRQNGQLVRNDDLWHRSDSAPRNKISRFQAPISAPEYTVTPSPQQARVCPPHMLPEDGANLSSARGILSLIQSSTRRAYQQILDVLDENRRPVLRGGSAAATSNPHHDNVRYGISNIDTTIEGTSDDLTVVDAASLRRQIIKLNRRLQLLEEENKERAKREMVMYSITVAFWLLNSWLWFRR

T4: CFP-MFF K151R (non-SUMOylatable MFF, human isoform 1) (human) (UniProt Q9GZY8)
T4 sequence: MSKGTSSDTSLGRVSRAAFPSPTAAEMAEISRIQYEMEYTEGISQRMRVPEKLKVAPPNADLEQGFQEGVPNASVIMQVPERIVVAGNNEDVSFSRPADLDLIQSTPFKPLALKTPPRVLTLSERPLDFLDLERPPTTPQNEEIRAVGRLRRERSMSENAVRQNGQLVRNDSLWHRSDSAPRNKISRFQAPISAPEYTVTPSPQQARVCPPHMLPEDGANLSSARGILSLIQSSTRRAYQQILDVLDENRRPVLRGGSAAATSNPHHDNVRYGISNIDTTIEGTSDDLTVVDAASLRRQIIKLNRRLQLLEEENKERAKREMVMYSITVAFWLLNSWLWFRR

T5: CFP-MFF wild type (mitochondrial fission factor, human isoform 1) (human) (UniProt Q9GZY8)
T5 sequence: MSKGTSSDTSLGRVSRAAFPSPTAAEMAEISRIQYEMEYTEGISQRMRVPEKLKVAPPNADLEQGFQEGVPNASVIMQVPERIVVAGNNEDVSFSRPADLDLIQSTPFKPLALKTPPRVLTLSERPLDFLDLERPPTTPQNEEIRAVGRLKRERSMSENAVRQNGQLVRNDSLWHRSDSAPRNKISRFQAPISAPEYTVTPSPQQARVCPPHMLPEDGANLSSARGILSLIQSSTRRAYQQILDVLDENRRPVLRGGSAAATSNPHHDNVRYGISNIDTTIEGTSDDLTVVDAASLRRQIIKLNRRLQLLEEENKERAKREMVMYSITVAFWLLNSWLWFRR

T6: CFP-MFF-2SA (double phospho-null S155A/S172A MFF, human isoform 1) (human) (UniProt Q9GZY8)
T6 sequence: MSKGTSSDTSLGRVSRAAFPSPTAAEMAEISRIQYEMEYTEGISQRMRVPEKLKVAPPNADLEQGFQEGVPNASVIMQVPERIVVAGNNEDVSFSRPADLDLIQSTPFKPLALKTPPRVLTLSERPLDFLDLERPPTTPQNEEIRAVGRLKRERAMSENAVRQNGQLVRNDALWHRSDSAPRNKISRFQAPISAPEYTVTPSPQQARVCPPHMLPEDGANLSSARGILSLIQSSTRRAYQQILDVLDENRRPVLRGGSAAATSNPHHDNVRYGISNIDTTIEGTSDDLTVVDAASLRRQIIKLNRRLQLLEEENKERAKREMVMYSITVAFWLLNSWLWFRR


Tests used:
[1] = target: T1, GFP-MFF K151R (pAcGFP-tagged human MFF isoform 1, K151R) (human); test: co-IP; GFP-Trap immunoprecipitation of GFP-MFF (WT or K151R) from HEK293T cells, vehicle or 10 uM CCCP for 1 hour before lysis; lysis in 50 mM tris pH 7.5, 150 mM NaCl, 1% Triton X-100, 20 mM NEM, 0.1% SDS; blotted for HA, endogenous MiD51 or DRP1
[2] = target: T2, GFP-MFF wild type (pAcGFP-tagged human MFF isoform 1) (human); test: as above
[3] = target: T3, CFP-MFF-2SD (double phospho-mimetic S155D/S172D MFF, human isoform 1) (human); test: co-IP; GFP-Trap immunoprecipitation of CFP-MFF (WT or mutants) from transfected HEK293T lysate, basal conditions; lysis in 20 mM tris pH 7.4, 137 mM NaCl, 1% Triton X-100, 10% glycerol, 25 mM beta-glycerophosphate, 2 mM Na-pyrophosphate, 20 mM NEM, 2 mM EDTA; beads 60 min at 4°C; blotted for endogenous DRP1, endogenous MiD49 or HA
[4] = target: T4, CFP-MFF K151R (non-SUMOylatable MFF, human isoform 1) (human); test: as above
[5] = target: T5, CFP-MFF wild type (mitochondrial fission factor, human isoform 1) (human); test: as above
[6] = target: T6, CFP-MFF-2SA (double phospho-null S155A/S172A MFF, human isoform 1) (human); test: as above

binding [1] | binding [2] | binding [3] | binding [4] | binding [5] | binding [6] | Molecule
binds | binds | – | – | – | – | mitochondrial dynamics protein of 51 kDa (MiD51), endogenous (from UniProt Q9NQG6 1-463)
– | – | binds | binds | binds | binds | mitochondrial dynamics protein of 49 kDa (MiD49), endogenous (protein, UniProt Q96C03 1-454) MAEFSQKRGKRRSDEGLGSMVDFLLANARLVLGVGGAAVLGIATLAVKRFIDRATSPRDEDDTKADSWKELSLLKATPHLQPRPPPAALSQPVLPLAPSSSAPEGPAETDPEVTPQLSSPAPLCLTLQERLLAFERDRVTIPAAQVALAKQLAGDIALELQAYFRSKFPELPFGAFVPGGPLYDGLQAGAADHVRLLVPLVLEPGLWSLVPGVDTVARDPRCWAVRRTQLEFCPRGSSPWDRFLVGGYLSSRVLLELLRKALAASVNWPAIGSLLGCLIRPSMASEELLLEVQHERLELTVAVLVAVPGVDADDRLLLAWPLEGLAGNLWLQDLYPVEAARLRALDDHDAGTRRRLLLLLCAVCRGCSALGQLGRGHLTQVVLRLGEDNVDWTEEALGERFLQALELLIGSLEQASLPCHFNPSVNLFSSLREEEIDDIGYALYSGLQEPEGLL

Further lines, the molecule ahead of its results:

Molecule | binding [1] | binding [2] | binding [3] | binding [4] | binding [5] | binding [6]
MiD51-HA (mitochondrial dynamics protein of 51 kDa, HA-tagged) (from UniProt Q9NQG6 1-463) | binds | binds | binds | binds | binds | binds
MiD49-HA (mitochondrial dynamics protein of 49 kDa, HA-tagged) (protein, UniProt Q96C03 1-454) MAEFSQKRGKRRSDEGLGSMVDFLLANARLVLGVGGAAVLGIATLAVKRFIDRATSPRDEDDTKADSWKELSLLKATPHLQPRPPPAALSQPVLPLAPSSSAPEGPAETDPEVTPQLSSPAPLCLTLQERLLAFERDRVTIPAAQVALAKQLAGDIALELQAYFRSKFPELPFGAFVPGGPLYDGLQAGAADHVRLLVPLVLEPGLWSLVPGVDTVARDPRCWAVRRTQLEFCPRGSSPWDRFLVGGYLSSRVLLELLRKALAASVNWPAIGSLLGCLIRPSMASEELLLEVQHERLELTVAVLVAVPGVDADDRLLLAWPLEGLAGNLWLQDLYPVEAARLRALDDHDAGTRRRLLLLLCAVCRGCSALGQLGRGHLTQVVLRLGEDNVDWTEEALGERFLQALELLIGSLEQASLPCHFNPSVNLFSSLREEEIDDIGYALYSGLQEPEGLL | – | – | binds | binds | – | binds
